Experimental data as given in patent publication US9463214B2, “Antibiotic peptide derived from helicobacter pylori ribosomal protein L1 and uses thereof” (INDUSTRY-ACADEMIC COOPERATION FOUNDATION, CHOSUN UNIVERSITY, priority 2013, dated 2016).
“Also recorded” adds a separate entry of the source. At least one peptide structure holds a part that was inferred or is arguable (an end, a ring closure or a residue). Ends that are not written are not given here.

Experiments:
[1] = system: E. coli cells; assay: SYTOX-Green fluorescence intensity in E. coli; type: cell-based; conditions: E. coli 2×10^7 cells/ml, 1 μM SYTOX-Green, over time and peptide concentration
Method: The SYTOX-Green fluorescence and luminous intensity of the peptide prepared in Example 1 were measured over the time.
Particularly, E. coli cells were cultured in LB medium at 37° C. The cells were diluted in 10 mM sodium phosphate buffer at the density of 2×10^7 cells/ml. 1 μM of SYTOX-Green was treated to the cells, followed by reaction in a dark incubator for 15˜20 minutes. The comparative peptides (HPA3P(A) and Buporin-2(C)), and the experimental peptide HPA3P2(B) were treated at the minimum inhibition concentration. The increasing fluorescence intensity emitted from SYTOX-Green was measured (excitation wavelength: 484 nm, emission wavelength: 520 nm).

[2] = system: GFP-labeled E. coli; assay: Changes in tissue of mouse infected with GFP-labeled E. coli; type: in vivo; conditions: ICR mouse
[3] = system: Pseudomonas aeruginosa (multidrug-resistant P. aeruginosa 4007 cells, MDRPA); assay: Immune response inhibition in mouse induced with inflammation (H&E, immunohistochemistry); type: in vivo; conditions: ICR mouse, MDRPA 4007, peptide 0.25 or 0.5 mg/kg 30 minutes after infection

AKKVFKRLPKLFSKIWNWK-NH2 [HPA3P, AKKVFKRLPKLFSKIWNWK-NH2]
change of SYTOX-Green fluorescence intensity [1]: showed the same response as buforin-2; also recorded: displayed the similar reaction to that of buforin-2

AKKVFKRLPKLPSKIWNWK-NH2 [HPA3P2, AKKVFKRLPKLPSKIWNWK-NH2]
change of SYTOX-Green fluorescence intensity [1]: did not show any change of fluorescence intensity; also recorded: the fluorescence strength was not changed
inflammation in tissue ([2]; peptide 0.25 mg/kg and 0.5 mg/kg): the inflammation was inhibited
inflammation in tissue ([2]; peptide 0.5 mg/kg (higher concentration)): the inflammation was significantly inhibited
inflammatory response in infected area ([3]; listed as the peptide): the inflammatory response was reduced
inflammatory response in infected area ([3]; listed as the peptide of the invention): inflammation response was reduced as the concentration of the peptide increased
